Test results as given in PMC5871692.
These are yes or no findings as the source states them, for the method shown. Some entries that bind do so weakly or less than the wild type.

Sequences of proteins named here, by UniProt entry; tags and fusion partners are left off. A change or cut given only in a name is not applied to a line headed by its entry.
UniProt P05648: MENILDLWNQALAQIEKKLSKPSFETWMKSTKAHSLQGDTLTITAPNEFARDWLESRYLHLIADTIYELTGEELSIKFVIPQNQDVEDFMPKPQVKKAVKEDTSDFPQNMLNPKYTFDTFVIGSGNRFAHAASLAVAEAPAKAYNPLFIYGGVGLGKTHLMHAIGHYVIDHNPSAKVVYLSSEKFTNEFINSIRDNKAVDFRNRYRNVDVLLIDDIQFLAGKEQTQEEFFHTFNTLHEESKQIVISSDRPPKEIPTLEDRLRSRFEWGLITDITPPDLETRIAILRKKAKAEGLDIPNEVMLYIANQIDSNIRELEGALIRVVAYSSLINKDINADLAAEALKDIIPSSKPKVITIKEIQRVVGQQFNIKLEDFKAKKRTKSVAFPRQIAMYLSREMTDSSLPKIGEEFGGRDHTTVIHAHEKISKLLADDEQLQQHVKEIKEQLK
UniProt P37542: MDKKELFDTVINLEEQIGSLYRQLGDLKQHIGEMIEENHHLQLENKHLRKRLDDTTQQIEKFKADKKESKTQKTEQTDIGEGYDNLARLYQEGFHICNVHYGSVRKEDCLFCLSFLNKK

How the values were obtained:
DnaA (Bacillus subtilis) = DnaA (Bacillus subtilis) (UniProt P05648); assay: two-hybrid; yeast two-hybrid; fusions to the GAL4 BD (pGBDU-C1) and AD (pGAD-C1), combinational mating of PJ694 alpha and a haploid strains, growth of diploids on selective media SD-LUH and SD-LUA
DnaN (Bacillus subtilis) = target: T1, DnaN (Bacillus subtilis) (UniProt P05649); assay: as above
T1 sequence: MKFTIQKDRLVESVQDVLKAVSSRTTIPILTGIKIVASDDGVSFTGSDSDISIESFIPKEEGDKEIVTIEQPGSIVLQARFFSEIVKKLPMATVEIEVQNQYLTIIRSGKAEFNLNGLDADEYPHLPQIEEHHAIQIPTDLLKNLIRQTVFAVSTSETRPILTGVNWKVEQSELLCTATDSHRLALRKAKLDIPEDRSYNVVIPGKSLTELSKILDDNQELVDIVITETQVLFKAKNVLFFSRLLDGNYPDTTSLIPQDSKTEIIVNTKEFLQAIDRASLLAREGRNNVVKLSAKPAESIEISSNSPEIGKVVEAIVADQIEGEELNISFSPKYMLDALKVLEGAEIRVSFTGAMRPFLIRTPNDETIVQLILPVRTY

Substance	binding (DnaA (Bacillus subtilis))	binding (DnaN (Bacillus subtilis))
YabA (from UniProt P37542 1-119)	binds	binds
YabA-T71D (from UniProt P37542 1-119)	binds	binds
YabA-T71A (from UniProt P37542 1-119)	binds	binds
